# PubChem BioAssay AID595 (National Center for Advancing Translational Sciences (NCATS), 2007)
# Hit rate of the full screen: of about 71,000 compounds, about 310 (0.44%) were called active. The shares of active, inactive and inconclusive entries below differ from those in the screen. Calls follow the shape of the dose curve; as a rule, active = well fitted curve in either direction with a large enough effect; inconclusive = small, poorly fitted or top-dose-only effect, or another doubt; inactive = flat fitted curve, though single readings scatter. A potency beside an inconclusive call is a rough fit, not a confirmed value.
# Tested on: Hsp90 C-terminal peptide / TPR2A (Hop) interaction, human
# Assay: qHTS Assay for Disrupters of an Hsp90 Co-Chaperone Interaction
# Conditions: AlphaScreen TPR2A-His6 binding biotin-Hsp90 C-terminal peptide; activity change, negative = inhibition: at 57 µM (top of the series) unless noted
# % is scaled to controls: 0 for no effect and ±100 for the full control effect; potency is read from the fitted curve at half-maximal effect.
Structure (SMILES),"activity change, negative = inhibition",Potency
COc1ccccc1CN1CC[C@@]2(CCCN(C(=O)c3cccn3C)C2)C1,inconclusive: 63.5%,–
N#CC1(O)CCCCC1,inactive,–
CCOC(=O)NC(NC(=O)OCC)C(=O)c1ccc(F)cc1,inconclusive: 36.9%,–
CCOC(=O)Nc1ccc2c(c1)N(C(=O)OC)c1ccccc1CC2,inconclusive: 40.7%,–
C=CCn1c(Cc2csc(N)n2)nnc1SCC(=O)Nc1ccc(C(=O)OCC)cc1,–,"inconclusive: 25.1 µM [inhibitor, partial curve]"
CC(C)O,inconclusive: 39.3%,–
CCOc1ccc(NC(=O)CN2C(=O)C3CCCN3C2=O)cc1 (stereo unspecified),inactive,–
CC1(C)CC(=O)C2=C(C1)OC(N)=C(C#N)C21C(=O)N2CCCc3cccc1c32 (stereo unspecified),inconclusive: 42.2%,–
CCc1nnc(NC(=O)CSc2nnc(CSc3nc(C)cc(C)n3)o2)s1,–,"inconclusive: 31.6 µM [inhibitor, single point]"
COC(=O)c1ccc(NC(=O)CCn2c(=O)oc3ccccc32)cc1,inactive,–
C[C@@H](C(=O)Nc1ccc2ccccc2c1)[C@H]1C[C@]1(C)[C@H](NC(=O)c1cnccn1)c1ccccc1,inactive,–
CCOC(=O)N1CCN(c2cc(NCCC(=O)O)c3c4c(onc24)-c2ccccc2C3=O)CC1,–,"inconclusive: 20 µM [inhibitor, partial curve]"
CN(C)c1ccc(/C=C/C(O)=C2/C(=O)N(C)C3(C)CC2c2ccccc2O3)cc1 (stereo unspecified),–,"inconclusive: 12.6 µM [activator, partial curve]"
CCc1nnc(NC(=O)c2cnccn2)s1,–,"inconclusive: 31.6 µM [inhibitor, single point]"
N#Cc1ccc(CSc2nnc(-c3ccccn3)n2-c2ccccc2)cc1,–,"inconclusive: 31.6 µM [inhibitor, single point]"
COc1cccc(NC(=O)c2ccc(CN3CCOCC3)cc2)c1,inactive,–
Cc1nn2c(c1-c1ccccc1)NC1=C(C(=O)CCC1)C2c1cccnc1 (stereo unspecified),inactive,–
COC(=O)c1ccccc1NC(=O)c1ccco1,inactive,–
O=C(Nc1ccccc1)N1CCC2(CCNCC2)CC1,inactive,–
COc1ccc(OC(C)=O)c(C2c3cc(OC)c(OC)cc3CCN2C(C)=O)c1 (stereo unspecified),inconclusive: 45.1%,–
CC1=c2c(oc3cc(O)c(Nc4c(C)cc(O)cc4O)c(C)c23)=CC(=O)C1=Nc1c(C)cc(O)cc1O,–,"inconclusive: 3.98 µM [inhibitor, partial curve]"
O=C(Nc1c(C(=O)O)[nH]c2ccccc12)NC1CCCCC1,inconclusive: 25.9%,–

# Arranged by molecular weight (high to low): five of the compounds above
Structure (SMILES),"activity change, negative = inhibition",Potency
C=CCn1c(Cc2csc(N)n2)nnc1SCC(=O)Nc1ccc(C(=O)OCC)cc1,–,"inconclusive: 25.1 µM [inhibitor, partial curve]"
CCc1nnc(NC(=O)CSc2nnc(CSc3nc(C)cc(C)n3)o2)s1,–,"inconclusive: 31.6 µM [inhibitor, single point]"
COC(=O)c1ccc(NC(=O)CCn2c(=O)oc3ccccc32)cc1,inactive,–
COc1cccc(NC(=O)c2ccc(CN3CCOCC3)cc2)c1,inactive,–
COC(=O)c1ccccc1NC(=O)c1ccco1,inactive,–

# Remaining list, next part:

Structure (SMILES),"activity change, negative = inhibition",Potency
O=S(=O)(C[C@H](O)C(Cl)(Cl)Cl)NNc1ccccc1,inactive: -4.97% [at 11 µM],–
O=C(COc1ccc(Cl)cc1)NCc1nnc(SCC(=O)c2ccccc2)o1,inconclusive: 43.8%,–
Cc1cnc(CNc2cc(-c3ccoc3)ncn2)cn1,inactive,–
FC(F)(F)c1cc(-c2ccccc2)nc(NCC2CCCO2)n1 (stereo unspecified),–,active: 31.6 µM [activator]
O=C(NCCCN1CCCC1)C1CCN(C(=O)c2cc3sccc3n2Cc2ccc(F)cc2)CC1,inconclusive: 23.4%,–
Oc1c(C(O)(c2ccccc2)c2ccc3ccccc3c2O)ccc2ccccc12,–,"inconclusive: 3.16 µM [inhibitor, partial curve]"
COCCn1nnnc1C(c1ccccc1OC)N1CCN(c2ccccc2F)CC1 (stereo unspecified),inactive,–
CCOC(=O)c1ccc(NC(=O)c2cccc(S(=O)(=O)N3CCOCC3)c2)cc1,inactive,–
COC(=O)c1ccc2c(c1)SC1=C(CCCC1=O)N2,inactive,–
COCCOC(=O)c1ccccc1C(=O)OCCOC,inconclusive: 55.2%,–
O=c1c(CCc2ccccc2)nc2cnc(N3CCNCC3)nc2n1Cc1cccs1,inconclusive: 83.4%,–
Cn1nc(-c2ccccc2)c2nc3ccccc3nc21,–,inconclusive: 6.31 µM [activator]
Cc1c(C(=O)OCC2CCCO2)[nH]c2c1C(=O)CC(c1ccc(N(C)C)cc1)C2 (stereo unspecified),–,"inconclusive: 25.1 µM [inhibitor, partial curve]"
c1cnc(N2CCN(Cc3ccc4c(c3)OCO4)CC2)nc1,–,"inconclusive: 31.6 µM [inhibitor, partial curve]"
c1ccc(CNc2ncnc3ccc(-c4cccnc4)cc23)cc1,inactive,–
CCOc1ccc2nc(NC(=O)c3ccoc3C)sc2c1,inactive: -14.3% [at 11 µM],–
CCOC(=O)C(C(=O)OCC)c1cc(Br)c2noc3c2c1C(=O)c1ccccc1-3,–,"inconclusive: 12.6 µM [inhibitor, partial curve]"
O=C(c1cccnc1NCc1ccccc1)N1CCOCC1,inactive,–
CCc1nc(SCC(=O)Nc2ccc3c(c2)OCCO3)c2oc3ccccc3c2n1,inactive,–
Cn1c(=O)cc(SCC(=O)N2CCOCC2)c2ccc(Cl)cc21,inconclusive: 49.8%,–
CCSc1nc2c(c(=O)n(C)c(=O)n2C)n1Cc1ccc(Cl)cc1,inactive,–
CC(C)(C)c1ccc(S(=O)(=O)/C=C\C#N)cc1,inactive,–

Structure (SMILES),"activity change, negative = inhibition",Potency
O=C(c1cc2nc(-c3ccco3)cc(C(F)(F)F)n2n1)N1CCCCCC1,inactive,–
CN(C)CC[C@H](c1ccc(Br)cc1)c1ccccn1,inactive,–
CC1CCC(NC(=O)c2ccc(CS(=O)(=O)Cc3ccccc3F)o2)CC1 (stereo unspecified),inconclusive: 31.4%,–
COC(=O)c1c(C)oc2cc(Br)c(OCC(=O)C(C)(C)C)cc12,inconclusive: 47.3%,–
O=c1cc(CSc2nnc(COc3ccccc3)o2)c2ccccc2[nH]1,inactive,–
O=C(C1CCN(S(=O)(=O)c2ccc(F)cc2)CC1)N1CCOCC1,inconclusive: 38.8%,–
Nc1ccc(C2CCCc3nonc32)c2nonc12 (stereo unspecified),inconclusive: 28.3%,–
COc1ccc(CNc2ccnc(-c3ccccc3OC)n2)c(OC)c1,inactive,–
Cn1cccc1C(=O)N1CCC2(CCCN(c3ccccc3)C2)CC1,–,"inconclusive: 25.1 µM [inhibitor, single point]"
CCCn1nnc(NC(=O)c2cc(Br)ccc2OC)n1,inactive,–
CCOC(=O)COc1ccc(S(=O)(=O)N2CCN(c3ccccc3F)CC2)cc1,inconclusive: 86.9%,–
COC(=O)CSc1nnnn1-c1ccccc1,inconclusive: 44.5%,–
CCC(c1nnnn1Cc1ccc2c(c1)OCO2)N1CCN(c2ccccc2)CC1 (stereo unspecified),inactive,–
CC(=O)NC(CCS(C)(=O)=O)C(=O)Nc1c(F)cccc1F (stereo unspecified),inconclusive: 43.4%,–
Cc1ccc(C(C)C)c(OCC(=O)Nc2ccccc2N2CCN(C)CC2)c1,inconclusive: 13.5%,–
Cc1ccc(CNC(=O)[C@@H]2C[C@H]2[C@@H](NP(=O)(c2ccccc2)c2ccccc2)c2ccccc2)o1,inactive,–
NCCCC(=O)O,inconclusive: 66.5%,–
N#CC(C(=O)OCc1ccccc1)c1nc2ccccc2nc1N1CCOCC1 (stereo unspecified),inactive,–
CC(C)(C)c1ccc(S(=O)(=O)NCCOCC(F)(F)C(F)F)cc1,inactive,–
NC(N)=NC(=O)Cc1c(Cl)cccc1Cl,–,"inconclusive: 12.6 µM [inhibitor, single point]"
O=C(O)/C(Cc1ccc([N+](=O)[O-])cc1)=N/O,inactive: 0.218% [at 11 µM],–
Cn1cc(-c2nc3cnc(N4CCNCC4)nc3n(CCc3ccccc3)c2=O)c2ccccc21,–,"inconclusive: 39.8 µM [activator, single point]"

Structure (SMILES),"activity change, negative = inhibition",Potency
Cc1c(C(=O)O)c2cc(O)ccc2n1-c1ccccc1,inactive,–
COc1ccc(-n2c(SCC(=O)OC(C)C)nnc2-c2ccccn2)cc1,–,"inconclusive: 31.6 µM [inhibitor, single point]"
CC1CN(Cc2nc3c(c(=O)n(C)c(=O)n3C)n2CCN2CCOCC2)CC(C)O1 (stereo unspecified),inconclusive: 40.7%,–
O=C(Nc1ccccc1N1CCCCC1)c1ccccc1F,–,"inconclusive: 25.1 µM [activator, single point]"
Cc1ccc(NC(=O)COC(=O)C2=COCCO2)cc1,inconclusive: 42.8%,–
COc1ccccc1NS(=O)(=O)c1cccc2cccnc12,inactive,–
Oc1ccccc1C1Nc2cccc3cccc(c23)N1,inconclusive: 13.1%,–
COC(=O)c1[nH]c2cc(C)ccc2c1NC(=O)CN1CCN(C(=O)c2ccco2)CC1,inconclusive: 34.9%,–
COc1ccc(N2CCN(c3oc(-c4ccccc4OC)nc3C#N)CC2)cc1,–,"inconclusive: 31.6 µM [inhibitor, single point]"
COc1cc2nc(N3CCNCC3)nc(N)c2cc1OC,–,"inconclusive: 31.6 µM [inhibitor, single point]"
CCN(CCN(C)C)C(=O)Cn1ncc2c1-c1cc(C)ccc1OC2,inconclusive: 46.9%,–
Cc1cc(NC(=O)C2CCN(S(=O)(=O)c3cnc[nH]3)CC2)ccc1Br,inconclusive: 63.3%,–
O[C@@H](c1cc(-c2ccccc2)nc2c1ccc1ccccc12)[C@@H]1CCCCN1,inconclusive: 74.2% [at 11 µM],–
Cc1cc2c(cc(C(=O)N3CCC(C(=O)NC4CCCC4)CC3)n2Cc2c(F)cccc2Cl)o1,inconclusive: 37.3%,–
CN(Cc1ccco1)c1ccnc(-c2ccoc2)n1,–,"inconclusive: 31.6 µM [inhibitor, single point]"
O=C(CSc1nnc(CNC(=O)c2ccccc2F)o1)NCCc1ccccc1,inconclusive: 50.5%,–
CCCOC(=O)Nc1sc2c(c1C(=O)OCC)CCC2,–,"inconclusive: 39.8 µM [activator, single point]"
CCN(CC)c1ccc(NC(=O)C2CCCN(S(=O)(=O)c3cnc[nH]3)C2)c(C)c1 (stereo unspecified),inconclusive: 29.3%,–
CCCN(CCC)S(=O)(=O)c1cccc(C(=O)Nc2ccc3c(c2)OCO3)c1,inconclusive: 40%,–
Cc1ccccc1-c1nc(Cc2ccccc2)no1,–,"inconclusive: 31.6 µM [activator, single point]"
